Measurements published in publication PMC2857886.
Results are given in words; binding and its absence hold for the method and conditions named. Binding seen in cells or lysates may run through a third protein. Some binding calls cover weakened binding; strength is not graded here. For some assays here: Where a sequence is shown, tags or fusion partners need not be part of it.

Protein sequences, listed by entry. Tags and fused reporters are not part of them.
UniProt Q15078: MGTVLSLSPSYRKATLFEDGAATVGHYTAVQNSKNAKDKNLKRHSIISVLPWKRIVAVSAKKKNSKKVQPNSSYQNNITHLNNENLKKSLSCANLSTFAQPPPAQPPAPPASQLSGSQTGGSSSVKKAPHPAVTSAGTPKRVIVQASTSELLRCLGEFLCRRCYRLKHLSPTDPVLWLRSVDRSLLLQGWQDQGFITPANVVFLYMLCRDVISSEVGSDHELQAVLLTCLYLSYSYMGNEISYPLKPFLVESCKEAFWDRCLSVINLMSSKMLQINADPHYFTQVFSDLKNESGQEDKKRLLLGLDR
UniProt P61809: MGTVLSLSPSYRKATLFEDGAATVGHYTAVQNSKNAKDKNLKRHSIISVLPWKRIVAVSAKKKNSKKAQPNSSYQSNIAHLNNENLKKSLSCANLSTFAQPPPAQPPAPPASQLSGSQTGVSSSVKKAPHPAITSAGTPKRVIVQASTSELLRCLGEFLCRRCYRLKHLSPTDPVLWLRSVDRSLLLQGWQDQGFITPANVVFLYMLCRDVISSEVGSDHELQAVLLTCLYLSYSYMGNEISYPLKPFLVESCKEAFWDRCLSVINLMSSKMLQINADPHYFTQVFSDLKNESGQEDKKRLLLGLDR

Columns and labels:
[1] = biological target: T1, Apoptosis-associated tyrosine kinase 1A (AATYK1A) tagged with Flag (UniProt Q80YE4); assay: co-IP; AATYK1A-Flag coexpressed with both p35 and Cdk5 in HEK293 cells; immunoprecipitated from cell lysates with anti-Flag; immunoblot with anti-p35 and anti-Cdk5
T1 sequence: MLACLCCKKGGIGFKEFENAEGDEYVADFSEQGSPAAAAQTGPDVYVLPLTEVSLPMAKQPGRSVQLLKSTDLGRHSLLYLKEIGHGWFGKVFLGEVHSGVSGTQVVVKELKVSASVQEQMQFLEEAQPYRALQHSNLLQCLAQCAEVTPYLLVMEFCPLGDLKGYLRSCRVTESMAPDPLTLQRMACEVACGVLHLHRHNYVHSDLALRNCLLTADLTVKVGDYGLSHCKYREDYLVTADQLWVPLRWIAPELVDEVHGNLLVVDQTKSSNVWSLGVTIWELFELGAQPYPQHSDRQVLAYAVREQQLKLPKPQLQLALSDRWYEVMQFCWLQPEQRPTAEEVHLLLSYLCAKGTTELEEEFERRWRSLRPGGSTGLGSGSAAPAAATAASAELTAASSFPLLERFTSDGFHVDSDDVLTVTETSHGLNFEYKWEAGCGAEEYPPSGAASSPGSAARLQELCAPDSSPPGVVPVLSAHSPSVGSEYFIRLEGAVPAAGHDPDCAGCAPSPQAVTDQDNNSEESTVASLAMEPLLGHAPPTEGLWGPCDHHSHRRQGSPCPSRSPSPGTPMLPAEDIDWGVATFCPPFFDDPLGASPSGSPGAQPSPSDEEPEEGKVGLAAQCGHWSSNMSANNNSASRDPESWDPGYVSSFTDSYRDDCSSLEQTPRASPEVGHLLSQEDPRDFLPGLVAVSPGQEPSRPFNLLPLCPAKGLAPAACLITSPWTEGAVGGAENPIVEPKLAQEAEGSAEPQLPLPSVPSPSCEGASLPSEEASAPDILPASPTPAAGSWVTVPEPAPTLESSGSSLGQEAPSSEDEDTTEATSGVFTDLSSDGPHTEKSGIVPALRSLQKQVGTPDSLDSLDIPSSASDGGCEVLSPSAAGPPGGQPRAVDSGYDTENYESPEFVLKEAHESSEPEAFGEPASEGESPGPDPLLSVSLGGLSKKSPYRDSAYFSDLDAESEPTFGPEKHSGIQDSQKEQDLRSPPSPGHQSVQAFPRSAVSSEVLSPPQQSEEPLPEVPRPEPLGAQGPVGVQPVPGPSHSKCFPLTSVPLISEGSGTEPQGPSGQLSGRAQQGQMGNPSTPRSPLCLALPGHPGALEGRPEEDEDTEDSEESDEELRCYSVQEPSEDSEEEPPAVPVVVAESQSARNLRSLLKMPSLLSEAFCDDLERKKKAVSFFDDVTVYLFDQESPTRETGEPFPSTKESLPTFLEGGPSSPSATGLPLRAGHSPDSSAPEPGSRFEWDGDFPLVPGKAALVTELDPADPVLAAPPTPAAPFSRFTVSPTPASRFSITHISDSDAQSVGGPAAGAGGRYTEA

[2] = biological target: T2, AATYK1 (endogenous, mouse brain) (mouse (endogenous in brain)) (UniProt Q80YE4); assay: co-IP; mouse brain extract (10 weeks); AATYK1 immunoprecipitated with the anti-AATYK1 antibody; HEPES buffer (20 mM HEPES pH 7.5, 150 mM NaCl, 2 mM MgCl2, 1 mM EGTA, 0.5% Nonidet P-40); immunoblot with anti-p35 and anti-Cdk5
T2 sequence: T1 sequence

| Substance | binding [1] | binding [2] |
| --- | --- | --- |
| p35, activation subunit of Cdk5 (from UniProt Q15078 1-307) | binds | – |
| p35 (endogenous, mouse brain) (from UniProt P61809 1-307) | – | binds |
